The values that follow come from article PMC9209810.

No constants are given. Whether binding was seen depends on the method and setting. A result given as binding can be weak or reduced; the word gives no strength.

Test [1] has as its target ScAGL11 (Senecio cruentus). As to the kind of experiment: two-hybrid; Matchmaker Gold Yeast Two-hybrid System, strain Y2H Gold; pGBKT7 (BD) and pGADT7 (AD) fusions co-transformed, both orientations; growth on SD/-Trp/-Leu/-His/-Ade at 1-, 10- and 100-fold dilution.
A further test concerns the target ScAG (Senecio cruentus). Described as above.

For the substance ScAG (from UniProt A0A9E7VC37), the binding entry in test [1] was “binds”.

Consider ScAGL11 (from UniProt A0A9E8AG79), for which the binding entry in the test with ScAG (Senecio cruentus) was “binds”.
